# In PMC3584050:
# By UniProt entry, the sequences of proteins in these tests, tags left out.
# UniProt Q9GZT9: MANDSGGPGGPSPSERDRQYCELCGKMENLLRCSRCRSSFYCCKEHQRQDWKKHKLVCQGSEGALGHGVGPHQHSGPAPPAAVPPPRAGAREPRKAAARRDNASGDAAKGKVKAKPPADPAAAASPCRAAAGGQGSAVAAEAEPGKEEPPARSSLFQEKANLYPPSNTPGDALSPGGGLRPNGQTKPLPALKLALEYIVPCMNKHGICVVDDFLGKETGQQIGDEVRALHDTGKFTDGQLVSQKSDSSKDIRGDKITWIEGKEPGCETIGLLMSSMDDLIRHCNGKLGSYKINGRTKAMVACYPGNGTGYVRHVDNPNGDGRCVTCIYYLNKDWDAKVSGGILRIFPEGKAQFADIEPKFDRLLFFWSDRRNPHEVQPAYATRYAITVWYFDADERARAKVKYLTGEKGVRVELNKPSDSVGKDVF
# UniProt Q9H2X3: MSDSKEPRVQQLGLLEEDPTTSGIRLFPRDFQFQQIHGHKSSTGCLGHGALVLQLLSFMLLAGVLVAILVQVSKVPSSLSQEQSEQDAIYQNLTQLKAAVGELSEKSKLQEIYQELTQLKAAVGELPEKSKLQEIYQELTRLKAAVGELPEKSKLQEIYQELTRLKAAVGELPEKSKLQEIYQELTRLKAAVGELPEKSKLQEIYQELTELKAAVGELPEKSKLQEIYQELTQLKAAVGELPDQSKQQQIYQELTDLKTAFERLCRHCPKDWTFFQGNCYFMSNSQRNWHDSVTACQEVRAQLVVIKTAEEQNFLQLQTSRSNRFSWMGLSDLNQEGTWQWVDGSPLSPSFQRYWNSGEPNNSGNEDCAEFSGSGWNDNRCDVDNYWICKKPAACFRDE
# UniProt Q9NNX6: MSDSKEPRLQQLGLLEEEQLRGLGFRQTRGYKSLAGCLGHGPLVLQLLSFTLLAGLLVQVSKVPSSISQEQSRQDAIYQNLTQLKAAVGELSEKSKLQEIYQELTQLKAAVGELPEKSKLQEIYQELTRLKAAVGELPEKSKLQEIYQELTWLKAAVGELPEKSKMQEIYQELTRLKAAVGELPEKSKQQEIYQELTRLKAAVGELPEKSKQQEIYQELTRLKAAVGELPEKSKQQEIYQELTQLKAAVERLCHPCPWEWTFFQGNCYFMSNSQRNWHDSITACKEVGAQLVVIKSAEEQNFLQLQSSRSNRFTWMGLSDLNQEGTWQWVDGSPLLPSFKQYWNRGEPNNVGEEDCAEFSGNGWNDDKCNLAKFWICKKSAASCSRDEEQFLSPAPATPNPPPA
# Results are given in words; binding and its absence hold for the method and conditions named. Binding seen in cells or lysates may run through a third protein.
# Biological target: GST-tagged EglN1 (UniProt Q9GZT9)
# Experiment: pull-down; 293T cells co-transfected with DC-SIGN or DC-SIGNR and GST-tagged bait; lysed in NP-40 lysis buffer (0.5% NP-40, 150 mM NaCl, 50 mM HEPES pH 7.5); glutathione-sepharose beads, three washes in lysis buffer; western blot for DC-SIGN/R; repeated with EndoH or PNGaseF digestion, and with HA-ubiquitin co-transfected and chloroquine, MG132 or DMSO treatment of the cells
row,Substance,binding
1,DC-SIGNR (CD209R) (from UniProt Q9H2X3 1-399) (receptor),no binding
2,"DC-SIGN (dendritic cell-specific ICAM-3 non-grabbing integrin, CD209) (from UniProt Q9NNX6 1-404) (receptor)",no binding
